Experimental data published in publication PMC10788534.
Results are given in words; binding and its absence hold for the method and conditions named. In cells and extracts the contact can be indirect. A yes stands for co-enrichment or nearness to the bait. Other partners may have been found.

The chains behind the UniProt entries cited, without tags or fusion partners. Residues count along the entry.
UniProt Q01705, residues 1749-2293: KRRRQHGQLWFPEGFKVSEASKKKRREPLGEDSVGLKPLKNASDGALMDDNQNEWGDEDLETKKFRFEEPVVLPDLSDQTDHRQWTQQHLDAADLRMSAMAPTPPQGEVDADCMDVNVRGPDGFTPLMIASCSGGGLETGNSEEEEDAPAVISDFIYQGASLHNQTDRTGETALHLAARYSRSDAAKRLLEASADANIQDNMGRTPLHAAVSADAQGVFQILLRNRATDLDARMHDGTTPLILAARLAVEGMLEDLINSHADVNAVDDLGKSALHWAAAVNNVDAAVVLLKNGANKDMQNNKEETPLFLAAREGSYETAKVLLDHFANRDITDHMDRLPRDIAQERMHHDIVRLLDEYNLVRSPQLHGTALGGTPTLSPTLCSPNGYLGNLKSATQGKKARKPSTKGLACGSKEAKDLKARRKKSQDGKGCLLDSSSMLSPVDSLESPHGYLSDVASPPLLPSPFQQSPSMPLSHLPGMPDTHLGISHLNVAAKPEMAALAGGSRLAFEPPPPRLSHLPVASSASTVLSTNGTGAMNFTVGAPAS

B1: TRPS1 (protein, UniProt Q9UHF7 1-1281)
chain: MVRKKNPPLRNVASEGEGQILEPIGTESKVSGKNKEFSADQMSENTDQSDAAELNHKEEHSLHVQDPSSSSKKDLKSAVLSEKAGFNYESPSKGGNFPSFPHDEVTDRNMLAFSSPAAGGVCEPLKSPQRAEADDPQDMACTPSGDSLETKEDQKMSPKATEETGQAQSGQANCQGLSPVSVASKNPQVPSDGGVRLNKSKTDLLVNDNPDPAPLSPELQDFKCNICGYGYYGNDPTDLIKHFRKYHLGLHNRTRQDAELDSKILALHNMVQFSHSKDFQKVNRSVFSGVLQDINSSRPVLLNGTYDVQVTSGGTFIGIGRKTPDCQGNTKYFRCKFCNFTYMGNSSTELEQHFLQTHPNKIKASLPSSEVAKPSEKNSNKSIPALQSSDSGDLGKWQDKITVKAGDDTPVGYSVPIKPLDSSRQNGTEATSYYWCKFCSFSCESSSSLKLLEHYGKQHGAVQSGGLNPELNDKLSRGSVINQNDLAKSSEGETMTKTDKSSSGAKKKDFSSKGAEDNMVTSYNCQFCDFRYSKSHGPDVIVVGPLLRHYQQLHNIHKCTIKHCPFCPRGLCSPEKHLGEITYPFACRKSNCSHCALLLLHLSPGAAGSSRVKHQCHQCSFTTPDVDVLLFHYESVHESQASDVKQEANHLQGSDGQQSVKESKEHSCTKCDFITQVEEEISRHYRRAHSCYKCRQCSFTAADTQSLLEHFNTVHCQEQDITTANGEEDGHAISTIKEEPKIDFRVYNLLTPDSKMGEPVSESVVKREKLEEKDGLKEKVWTESSSDDLRNVTWRGADILRGSPSYTQASLGLLTPVSGTQEQTKTLRDSPNVEAAHLARPIYGLAVETKGFLQGAPAGGEKSGALPQQYPASGENKSKDESQSLLRRRRGSGVFCANCLTTKTSLWRKNANGGYVCNACGLYQKLHSTPRPLNIIKQNNGEQIIRRRTRKRLNPEALQAEQLNKQQRGSNEEQVNGSPLERRSEDHLTESHQREIPLPSLSKYEAQGSLTKSHSAQQPVLVSQTLDIHKRMQPLHIQIKSPQESTGDPGNSSSVSEGKGSSERGSPIEKYMRPAKHPNYSPPGSPIEKYQYPLFGLPFVHNDFQSEADWLRFWSKYKLSVPGNPHYLSHVPGLPNPCQNYVPYPTFNLPPHFSAVGSDNDIPLDLAIKHSRPGPTANGASKEKTKAPPNVKNEGPLNVVKTEKVDRSTQDELSTKCVHCGIVFLDEVMYALHMSCHGDSGPFQCSICQHLCTDKYDFTTHIQRGLHRNNAQVEKNGKPKE
B2: ZNF281 (protein, UniProt Q9Y2X9 1-895)
chain: MKIGSGFLSGGGGTGSSGGSGSGGGGSGGGGGGGSSGRRAEMEPTFPQGMVMFNHRLPPVTSFTRPAGSAAPPPQCVLSSSTSAAPAAEPPPPPAPDMTFKKEPAASAAAFPSQRTSWGFLQSLVSIKQEKPADPEEQQSHHHHHHHHYGGLFAGAEERSPGLGGGEGGSHGVIQDLSILHQHVQQQPAQHHRDVLLSSSSRTDDHHGTEEPKQDTNVKKAKRPKPESQGIKAKRKPSASSKPSLVGDGEGAILSPSQKPHICDHCSAAFRSSYHLRRHVLIHTGERPFQCSQCSMGFIQKYLLQRHEKIHSREKPFGCDQCSMKFIQKYHMERHKRTHSGEKPYKCDTCQQYFSRTDRLLKHRRTCGEVIVKGATSAEPGSSNHTNMGNLAVLSQGNTSSSRRKTKSKSIAIENKEQKTGKTNESQISNNINMQSYSVEMPTVSSSGGIIGTGIDELQKRVPKLIFKKGSRKNTDKNYLNFVSPLPDIVGQKSLSGKPSGSLGIVSNNSVETIGLLQSTSGKQGQISSNYDDAMQFSKKRRYLPTASSNSAFSINVGHMVSQQSVIQSAGVSVLDNEAPLSLIDSSALNAEIKSCHDKSGIPDEVLQSILDQYSNKSESQKEDPFNIAEPRVDLHTSGEHSELVQEENLSPGTQTPSNDKASMLQEYSKYLQQAFEKSTNASFTLGHGFQFVSLSSPLHNHTLFPEKQIYTTSPLECGFGQSVTSVLPSSLPKPPFGMLFGSQPGLYLSALDATHQQLTPSQELDDLIDSQKNLETSSAFQSSSQKLTSQKEQKNLESSTGFQIPSQELASQIDPQKDIEPRTTYQIENFAQAFGSQFKSGSRVPMTFITNSNGEVDHRVRTSVSDFSGYTNMMSDVSEPCSTRVKTPTSQSYR

Target: BioID2-NICD (HEK293 or NIH3T3 stable line; the text does not tell which) (mouse) (UniProt Q01705)
Assay: proximity labelling; BioID as in HEK293 and NIH3T3 stable lines; results told for the study as a whole (core-proximal proteins found in at least two of HEK293, 3T3 and BioGRID, and others) without naming the cell line

| Binder | binding |
| --- | --- |
| B1 | binds |
| B2 | binds |
